# Results published in PubChem BioAssay AID192 (DTP/NCI, 2004).
# The list does not hold the whole screen: it is rich in T/C values a quarter to a half above the control, in often repeated tests (any T/C) and in doses without a T/C. Further doses and runs are listed elsewhere. T/C: endpoint of the treated group in % of that of the vehicle group. Some entries give survivors of the animals treated and no T/C: the source files T/C as zero there, which appears to mark a toxic dose or a test without result, not a measured value. Some doses without a T/C left all or most animals alive at the check, yet need not have been tolerated: survival well below the control is almost never listed, so the zero probably covers shortened survival too. Counts of survivors are from the toxicity check (mostly the fifth day) where no day follows; animals may have died later. Schedule codes are those of the source, read here as Q, the interval in days (D) or hours (H), X, the number of doses. Counts like (3×) say how often a value occurs here. Some doses were run more than once; the results are listed from low to high. Where survival is the endpoint, this PubChem deposit counts one and a half times the control or more as active, and values a quarter to a half above the control carry no call in these data; other NCI protocols may use other cut-offs. Some T/C values carry the count of animals alive at the toxicity check (mostly the fifth day); without a count, all were alive then.
# System: BDF1 mice, B16 melanoma ip, median survival T/C
# Assay: NCI In Vivo Anticancer Drug Screen. Data for tumor model B16 Melanoma (intraperitoneal) in B6D2F1 (BDF1) mice
# Details: T/C endpoint: median survival time, higher T/C = longer survival
# How it was run: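 Read-out: survival or tumor size, given as treated/control ratio. Controls received vehicle only; animals bore transplantable tumors.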
# [1] = dose: 0.12 mg/kg/injection, schedule: Q01DX009 (ip), vehicle: saline
# [2] = dose: 1.0 mg/kg/injection, schedule: Q01DX009 (ip), vehicle: saline sonified
# [3] = dose: 4.0 mg/kg/injection, schedule: Q01DX002 (ip), vehicle: saline
smiles,measurement,setting,value
C1CN1c1nc(N2CC2)nc(N2CC2)n1,T/C,[1],"95, 102 (3×), 105, 106, 112, 119, 130 % of control"
same,survivor count,[1],6 of 6
same,T/C,"dose: 0.13 mg/kg/injection, schedule: Q01DX009 (ip), vehicle: saline, evaluated on day 45","102, 110, 148 % of control"
same,T/C,"dose: 0.13 mg/kg/injection, schedule: Q01DX009 (ip), vehicle: saline, evaluated on day 60","101, 103 [4 of 6 alive], 104, 105, 106, 115 (2×), 117 (2×), 122, 129, 133 % of control [4 of 6 alive]"
same,T/C,"dose: 0.2 mg/kg/injection, schedule: Q01DX009 (ip), vehicle: saline, evaluated on day 45",111 % of control
same,T/C,"dose: 0.2 mg/kg/injection, schedule: Q01DX009 (ip), vehicle: saline, evaluated on day 60","116, 123, 133 % of control"
same,T/C,"dose: 0.25 mg/kg/injection, schedule: Q01DX009 (ip), vehicle: saline, evaluated on day 45",100 and 135 % of control (2×)
same,T/C,"dose: 0.25 mg/kg/injection, schedule: Q01DX009 (ip), vehicle: saline, evaluated on day 60","97 (2×), 100, 102, 103 [5 of 6 alive], 107, 110, 111, 112, 115 (2×), 117 (2×), 119, 121, 122, 125, 126 % of control (2×)"
same,survivor count,"dose: 0.25 mg/kg/injection, schedule: Q01DX009 (ip), vehicle: saline",5 of 6 and 6 of 6
same,T/C,"dose: 0.4 mg/kg/injection, schedule: Q01DX009 (ip), vehicle: saline, evaluated on day 45",136 % of control
same,T/C,"dose: 0.4 mg/kg/injection, schedule: Q01DX009 (ip), vehicle: saline, evaluated on day 60","114, 134, 150 % of control"
same,T/C,"dose: 0.5 mg/kg/injection, schedule: Q01DX002 (ip), vehicle: saline","104, 113, 114, 120, 126 % of control"
same,T/C,"dose: 0.5 mg/kg/injection, schedule: Q01DX009 (ip), vehicle: saline, evaluated on day 45",100 and 102 % of control
same,T/C,"dose: 0.5 mg/kg/injection, schedule: Q01DX009 (ip), vehicle: saline, evaluated on day 60","89, 90 (2×), 95, 100, 102, 103, 117, 121 (2×), 122 (2×), 125, 126, 127, 138, 147, 167 % of control"
same,survivor count,"dose: 0.5 mg/kg/injection, schedule: Q01DX009 (ip), vehicle: saline",10 of 10 and 6 of 6 (2×)
same,T/C,"dose: 0.5 mg/kg/injection, schedule: Q08DX002 (ip), vehicle: saline with Tween-80",136 % of control
same,T/C,"dose: 0.5 mg/kg/injection, schedule: Q08DX002 (ip), vehicle: saline, evaluated on day 45",107 and 112 % of control
same,T/C,"dose: 0.5 mg/kg/injection, schedule: Q08DX002 (ip), vehicle: saline, evaluated on day 60","90 [4 of 6 alive], 100 (2×), 102 (2×), 109, 113, 116, 117, 118, 123, 130 % of control"
same,survivor count,"dose: 0.5 mg/kg/injection, schedule: Q08DX002 (ip), vehicle: saline",6 of 6 (2×)
same,survivor count,"dose: 0.8 mg/kg/injection, schedule: Q01DX009 (ip), vehicle: saline",10 of 10
same,T/C,"dose: 1.0 mg/kg/injection, schedule: Q01DX002 (ip), vehicle: saline","110 [5 of 6 alive], 111, 120 [5 of 6 alive], 121, 142 % of control"
same,T/C,[2],130 % of control
same,survivor count,[2],6 of 6
same,T/C,"dose: 1.0 mg/kg/injection, schedule: Q01DX009 (ip), vehicle: saline, evaluated on day 45",97 [5 of 6 alive] and 102 % of control
same,T/C,"dose: 1.0 mg/kg/injection, schedule: Q01DX009 (ip), vehicle: saline, evaluated on day 60","86 [5 of 6 alive], 100, 103 [4 of 6 alive], 115, 117, 134 % of control"
same,survivor count,"dose: 1.0 mg/kg/injection, schedule: Q01DX009 (ip), vehicle: saline","5 of 6 (2×), 9 of 10, 10 of 10, 6 of 6"
same,T/C,"dose: 1.0 mg/kg/injection, schedule: Q08DX002 (ip), vehicle: saline, evaluated on day 45","95, 112, 157 % of control"
same,T/C,"dose: 1.0 mg/kg/injection, schedule: Q08DX002 (ip), vehicle: saline, evaluated on day 60","100, 100 [4 of 6 alive], 105 [5 of 6 alive], 107, 116, 117, 123, 125, 126, 127, 148 % of control"
same,survivor count,"dose: 1.0 mg/kg/injection, schedule: Q08DX002 (ip), vehicle: saline",5 of 6 and 6 of 6
same,survivor count,"dose: 1.6 mg/kg/injection, schedule: Q01DX009 (ip), vehicle: saline",4 of 10
same,T/C,"dose: 2.0 mg/kg/injection, schedule: Q01DX002 (ip), vehicle: saline","95, 97, 102, 132, 146 % of control"
same,survivor count,"dose: 2.0 mg/kg/injection, schedule: Q01DX009 (ip), vehicle: saline",8 of 10 and 10 of 10
same,survivor count,"dose: 2.0 mg/kg/injection, schedule: Q01DX009 (ip), vehicle: suspension in saline",10 of 10
same,T/C,"dose: 2.0 mg/kg/injection, schedule: Q08DX002 (ip), vehicle: saline sonified",131 % of control
same,T/C,"dose: 2.0 mg/kg/injection, schedule: Q08DX002 (ip), vehicle: saline with Tween-80",133 and 136 % of control
same,T/C,"dose: 2.0 mg/kg/injection, schedule: Q08DX002 (ip), vehicle: saline, evaluated on day 45",92 and 122 % of control
same,T/C,"dose: 2.0 mg/kg/injection, schedule: Q08DX002 (ip), vehicle: saline, evaluated on day 60","97, 103, 111, 115, 122, 125, 132, 147, 154, 158, 164 % of control"
same,survivor count,"dose: 2.0 mg/kg/injection, schedule: Q08DX002 (ip), vehicle: saline",1 of 6 and 6 of 6 (2×)
same,survivor count,"dose: 3.2 mg/kg/injection, schedule: Q01DX009 (ip), vehicle: saline",6 of 10
same,T/C,[3],113 % of control
same,survivor count,[3],5 of 6 and 6 of 6
same,survivor count,"dose: 4.0 mg/kg/injection, schedule: Q08DX002 (ip), vehicle: saline sonified",5 of 6 and 6 of 6
same,survivor count,"dose: 4.0 mg/kg/injection, schedule: Q08DX002 (ip), vehicle: saline with Tween-80",6 of 6
same,T/C,"dose: 4.0 mg/kg/injection, schedule: Q08DX002 (ip), vehicle: saline, evaluated on day 45",115 % of control
same,T/C,"dose: 4.0 mg/kg/injection, schedule: Q08DX002 (ip), vehicle: saline, evaluated on day 60","97, 102, 120 [5 of 6 alive], 155 % of control"
same,survivor count,"dose: 4.0 mg/kg/injection, schedule: Q08DX002 (ip), vehicle: saline","0 of 6, 1 of 6, 3 of 6, 4 of 6, 5 of 6, 6 of 6 (2×)"
CC1CC(C)(C)N=C(CCC2CCCC23OCCO3)O1 (configuration not stated),T/C,"dose: 200.0 mg/kg/injection, schedule: Q01DX009 (ip), vehicle: saline",126 % of control
